Assay results from US20160046678A1 (ZYNGENIA, published 2016).
These are yes or no findings as the source states them, for the method shown. Some entries that bind do so weakly or less than the wild type.

target: ErbB2 (UniProt P04626); experiment: MRD identification, Example 48

binding, binds:
WSGYCELEDHWAFCGGTI [EGB826]
WSGYCEFKTHWGHCGNPQ [EGB813]
WSGYCEYRDHWAHCGGSL [EGB791]
WSGYCEYIDHWGYCQGSI [EGB795]
WSGYCEFNDHWAHCHGSP [EGB848]
WSGYCEFKGYWDHCGSSK [EGB850]
WSGYCEMNDHWDYCYGPK [EGB831]
WSGYCEMKDHWAHCGGLI [EGB805]
WSGYCQLMDHWDYCHGQG [EGB799]
WSGYCEGQYFWYHCSGSG [EGB829]
WSGYCEFNGFWAHCGGFI [EGB808]
WSGYCEMEHGWDYCSGTI [EGB824]
WSGYCESYDHWYHCGGTL [EGB837]
WSGYCEFKDHWDHCGDSE [EGB825]
WSGYCNMGDHWDHCSGSI [EGB818]
WSGYCEFKDHWDYCHGSV [EGB806]
WSGYCEYEDHWDYCGTWV [EGB838]
WSGYCEMKGHWAHCGGSP [EGB817]
WSGYCEFKDHWDFCGGSY [EGB835]
WSGYCEYKDHWGYCGGSI [EGB798]
WSGYCLMKDHWGYCGGWI [EGB809]
WSGYCEGKEHWYQCGGPL [EGB847]
WSGYCEMNDHWDYCYGSI [EGB796]
WSGYCEFKDHWDHCHSSG [EGB814]
WSGYCEYKDHWDFCGNVD [EGB789]
WSGYCEKEGYWAHCRGTI [EGB816]
WSGYCEYKDHWDYCGSSV [EGB788]
WSGYCEYKDHWDHCGSSV [EGB787]
WSGYCEFKDHWDHCGGSL [EGB840]
FQGHCALFPTDWICTLKS [EGB811]
WSGYCQTNDHWDYCSGTI [EGB836]
WSGYCEFQDHWDHCFGSS [EGB830]
WSGYCEFRDHWDYCGNSY [EGB832]
WSGYCEFKDRWAHCSGSI [EGB849]
WSGYCEMEDRWAYCSGSI [EGB839]
WSGYCEFEDHWDYCGNSE [EGB810]
WSGYCEFKGYWDFCYGSM [EGB827]
WSGYCEMTDHWAHCSGSH [EGB802]
WSGYCEMGDHWDYCSGSV [EGB807]
WSGYCEFQDYWDYCGGSI [EGB823]
WSGYCEFEGYWAHCGGSI [EGB792]
WSGYCEFKDHWDYCGNSD [EGB834]
WSGYCEFEDHWDYCHGSV [EGB803]
WSGYCEMKGYWDFCGGLI [EGB822]
WSGYCQMKDHWDYCSGSL [EGB845]
WSGYCEFKDHWAHCSGSL [EGB820]
